Laboratory results reported in paper PMC4316160.

Amino acid sequences for entries named in this document (tags omitted). A change or cut given only in a name is not applied to a line headed by its entry.
UniProt P62821: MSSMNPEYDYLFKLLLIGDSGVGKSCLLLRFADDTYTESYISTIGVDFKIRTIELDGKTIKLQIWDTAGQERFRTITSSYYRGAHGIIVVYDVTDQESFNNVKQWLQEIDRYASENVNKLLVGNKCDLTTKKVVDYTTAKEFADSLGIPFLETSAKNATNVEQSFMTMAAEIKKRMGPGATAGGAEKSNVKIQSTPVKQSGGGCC

B1: Rusc2 RUN domain (domain or fragment, UniProt Q80U22 1026-1170)
chain: NVGHLVLKYLCPAVQAVLEDGLKAFVLDVIIGQRKNMPWSVVEASTQLGPSTKVLHGLYNKVSQFPELTSHTMRFNAFILGLLNIRSLEFWFNHLYNHEDIIQTHYQPWGFLRAAHTVCPGLFEELLLLLQPLALLPFSLDLLFQ

Columns and labels:
Assay in all cases: two-hybrid; pGBD-C1 vectors with CA/CN Rab mutants (ΔCys) or Arl8b(Q75L)ΔN and pAct2 vectors with Kif tail domains or SKIP RUN domain; yeast strain pJ69-4A; selection medium SC-AHLW, 30°C, 1 week
[1] = molecular target: T1, SKIP-RUN (amino acid residues 1–282), pAct2 (human) (UniProt Q8IWE5)
T1 sequence: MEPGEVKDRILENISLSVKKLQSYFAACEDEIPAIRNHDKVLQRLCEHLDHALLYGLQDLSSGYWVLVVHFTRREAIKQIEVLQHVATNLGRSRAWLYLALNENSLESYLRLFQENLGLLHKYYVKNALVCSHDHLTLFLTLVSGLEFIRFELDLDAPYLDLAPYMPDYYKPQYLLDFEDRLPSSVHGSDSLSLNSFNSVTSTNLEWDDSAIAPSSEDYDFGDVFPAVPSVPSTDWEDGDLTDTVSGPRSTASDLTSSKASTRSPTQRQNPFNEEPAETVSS

[2] = molecular target: T2, SKIP(Δ177–186)-RUN, pAct2 (human) (UniProt Q8IWE5)
T2 sequence: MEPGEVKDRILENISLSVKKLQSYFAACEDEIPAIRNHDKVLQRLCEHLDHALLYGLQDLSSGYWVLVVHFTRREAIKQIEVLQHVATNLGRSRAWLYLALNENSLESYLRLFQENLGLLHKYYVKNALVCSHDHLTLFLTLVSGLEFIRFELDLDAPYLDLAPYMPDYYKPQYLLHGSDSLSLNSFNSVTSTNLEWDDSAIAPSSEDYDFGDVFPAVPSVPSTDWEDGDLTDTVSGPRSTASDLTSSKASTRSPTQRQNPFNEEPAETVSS

[3] = molecular target: constitutively active (CA) Rab1A mutant, Rab1A(Q70L)ΔCys (mouse) (UniProt P62821)

| Molecule | binding [1] | binding [2] | binding [3] |
| --- | --- | --- | --- |
| constitutively negative (CN) Rab1A mutant, ΔCys (from UniProt P62821) | no binding | – | – |
| constitutively active (CA) Rab1A mutant, Rab1A(Q70L)ΔCys (from UniProt P62821) | binds | no binding | – |
| B1 | – | – | binds |

No constants are given. Whether binding was seen depends on the method and setting. For some of these results: A result given as binding can be weak or reduced; the word gives no strength.
